Taken from: PubChem BioAssay AID1224830 (NIAID, 2016)
Purpose: 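Host factors that control LPS-induced TNF expression in human macrophages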 (primary screen). Cell system: human THP-1 monocytic leukaemia cells, TNF dual-luciferase reporter clone, PMA-differentiated to macrophage-like cells. Reagents: siRNA pool against human genes, 50 nM. Time to read-out: LPS for 4 h, given about 3 days after siRNA transfection. Challenge: bacterial LPS (TLR4 ligand), 10 ng/ml. Measured: 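TNF firefly reporter luminescence divided by renilla, normalised to the plate median, then turned into a robust z-score for each replicate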. Scale: TNF reporter robust z-score: higher = stronger TNF reporter response to LPS. Hit rule: 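Each well counts as active if its z-score is over 2.8 or under -1.5; controls are left without a call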.
Shown is an unselected part of about 18,000 deposited reagents. Over the whole deposit, about 2,900 (16%) got an active call. 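Calls are made per well; low scores hint the gene aids the LPS response, high scores that it dampens it.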 Repeated entries: four replicate wells of each siRNA pool. Reagent sequences are not shown.

For SH3PXD2B (SH3 and PX domains 2B), how do the results read?
TNF reporter robust z-score: -0.56; Call: inactive

What is on record for SH3PXD2B (SH3 and PX domains 2B)?
TNF reporter robust z-score: 0.44; Call: inactive

For SH3PXD2B (SH3 and PX domains 2B), what was measured?
TNF reporter robust z-score: -0.38; Call: inactive

For SH3PXD2B (SH3 and PX domains 2B), what does the deposit list?
TNF reporter robust z-score: -0.19; Call: inactive

For RAPH1, how do the results read?
TNF reporter robust z-score: 0.67; Call: inactive

With RAPH1, how do the results read?
TNF reporter robust z-score: -0.75; Call: inactive

For RAPH1, what was measured?
TNF reporter robust z-score: -0.2; Call: inactive

What did the screen give for RAPH1?
TNF reporter robust z-score: -0.79; Call: inactive

How did the screen score TMEM52 (transmembrane protein 52)?
TNF reporter robust z-score: -0.11; Call: inactive

For TMEM52 (transmembrane protein 52), how do the results read?
TNF reporter robust z-score: 1.61; Call: inactive

For TMEM52 (transmembrane protein 52), what was measured?
TNF reporter robust z-score: -1.42; Call: inactive

For TMEM52 (transmembrane protein 52), what was measured?
TNF reporter robust z-score: -0.66; Call: inactive

With PPL (periplakin), what was measured?
TNF reporter robust z-score: -1.86; Call: active

For PPL (periplakin), what was measured?
TNF reporter robust z-score: -1.64; Call: active

With PPL (periplakin), how do the results read?
TNF reporter robust z-score: -1.35; Call: inactive

What did the screen give for PPL (periplakin)?
TNF reporter robust z-score: -1.58; Call: active

How did the screen score DERL2 (derlin 2)?
TNF reporter robust z-score: -1.2; Call: inactive

Which result is listed for DERL2 (derlin 2)?
TNF reporter robust z-score: -1.25; Call: inactive

With DERL2 (derlin 2), what does the deposit list?
TNF reporter robust z-score: -1.21; Call: inactive

With DERL2 (derlin 2), what was measured?
TNF reporter robust z-score: -0.86; Call: inactive

With OR5H1 (olfactory receptor family 5 subfamily H member 1), what was measured?
TNF reporter robust z-score: 0.82; Call: inactive

What did the screen give for OR5H1 (olfactory receptor family 5 subfamily H member 1)?
TNF reporter robust z-score: 0.73; Call: inactive

Which result is listed for OR5H1 (olfactory receptor family 5 subfamily H member 1)?
TNF reporter robust z-score: 1.04; Call: inactive

With OR5H1 (olfactory receptor family 5 subfamily H member 1), what does the deposit list?
TNF reporter robust z-score: -0.57; Call: inactive

For OR13C4 (olfactory receptor family 13 subfamily C member 4), how do the results read?
TNF reporter robust z-score: 0.73; Call: inactive

For OR13C4 (olfactory receptor family 13 subfamily C member 4), what does the deposit list?
TNF reporter robust z-score: -0.76; Call: inactive

How did the screen score OR13C4 (olfactory receptor family 13 subfamily C member 4)?
TNF reporter robust z-score: -0.46; Call: inactive

For OR13C4 (olfactory receptor family 13 subfamily C member 4), what was measured?
TNF reporter robust z-score: -0.09; Call: inactive

7 entries from above, ordered by “TNF reporter robust z-score”, highest first.
RAPH1: TNF reporter robust z-score = 0.67; Call = inactive
TMEM52 (transmembrane protein 52): TNF reporter robust z-score = -0.11; Call = inactive
SH3PXD2B (SH3 and PX domains 2B): TNF reporter robust z-score = -0.19; Call = inactive
RAPH1: TNF reporter robust z-score = -0.2; Call = inactive
SH3PXD2B (SH3 and PX domains 2B): TNF reporter robust z-score = -0.38; Call = inactive
RAPH1: TNF reporter robust z-score = -0.75; Call = inactive
RAPH1: TNF reporter robust z-score = -0.79; Call = inactive

The list goes on:
For MGRN1 (mahogunin ring finger 1), what does the deposit list?
TNF reporter robust z-score: -0.77; Call: inactive

What did the screen give for MGRN1 (mahogunin ring finger 1)?
TNF reporter robust z-score: 0.04; Call: inactive

With MGRN1 (mahogunin ring finger 1), what does the deposit list?
TNF reporter robust z-score: -0.46; Call: inactive

With MGRN1 (mahogunin ring finger 1), what does the deposit list?
TNF reporter robust z-score: -0.38; Call: inactive

For BIRC7 (baculoviral IAP repeat containing 7), what was measured?
TNF reporter robust z-score: -1.4; Call: inactive

What is on record for BIRC7 (baculoviral IAP repeat containing 7)?
TNF reporter robust z-score: 0.74; Call: inactive

Which result is listed for BIRC7 (baculoviral IAP repeat containing 7)?
TNF reporter robust z-score: -0.31; Call: inactive

Which result is listed for BIRC7 (baculoviral IAP repeat containing 7)?
TNF reporter robust z-score: 0.24; Call: inactive

For EPDR1 (ependymin related 1), how do the results read?
TNF reporter robust z-score: 1.04; Call: inactive

What is on record for EPDR1 (ependymin related 1)?
TNF reporter robust z-score: 2.53; Call: inactive

With EPDR1 (ependymin related 1), what was measured?
TNF reporter robust z-score: -0.82; Call: inactive

With EPDR1 (ependymin related 1), what was measured?
TNF reporter robust z-score: 0.6; Call: inactive

For ABCG4 (ATP binding cassette subfamily G member 4), how do the results read?
TNF reporter robust z-score: -1.64; Call: active

What did the screen give for ABCG4 (ATP binding cassette subfamily G member 4)?
TNF reporter robust z-score: -0.35; Call: inactive

Which result is listed for ABCG4 (ATP binding cassette subfamily G member 4)?
TNF reporter robust z-score: -0.56; Call: inactive

How did the screen score ABCG4 (ATP binding cassette subfamily G member 4)?
TNF reporter robust z-score: -0.13; Call: inactive

How did the screen score C1orf174 (chromosome 1 open reading frame 174)?
TNF reporter robust z-score: -1.47; Call: inactive

What is on record for C1orf174 (chromosome 1 open reading frame 174)?
TNF reporter robust z-score: -0.91; Call: inactive

For C1orf174 (chromosome 1 open reading frame 174), what does the deposit list?
TNF reporter robust z-score: -1.13; Call: inactive

What is on record for C1orf174 (chromosome 1 open reading frame 174)?
TNF reporter robust z-score: -1.06; Call: inactive
